The assay concerns the target T1, CDC50A-FLAG (Gallus gallus CDC50A, FLAG-tagged) (Gallus gallus) (UniProt Q5F362).
T1 sequence: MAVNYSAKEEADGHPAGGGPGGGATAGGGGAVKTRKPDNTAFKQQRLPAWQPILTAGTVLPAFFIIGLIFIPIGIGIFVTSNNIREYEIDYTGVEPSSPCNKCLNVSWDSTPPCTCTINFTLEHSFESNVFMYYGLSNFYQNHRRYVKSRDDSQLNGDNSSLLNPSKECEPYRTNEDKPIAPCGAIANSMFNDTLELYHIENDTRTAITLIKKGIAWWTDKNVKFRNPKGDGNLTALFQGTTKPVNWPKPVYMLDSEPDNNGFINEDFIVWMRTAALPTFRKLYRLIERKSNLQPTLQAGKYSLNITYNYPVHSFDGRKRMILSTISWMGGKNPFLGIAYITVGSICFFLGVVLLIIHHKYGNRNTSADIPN
In words: co-IP.

The values below come from publication PMC12446626.

These are yes or no findings as the source states them, for the method shown. In cells and extracts the contact can be indirect. Binding can be weak; no strength is given. Tags and fused reporters may be left off the sequences shown.

As to “ATP11c-HA (Gallus gallus phospholipid flippase ATP11c, HA-tagged)”, the binding result was “binds”.
